PubChem BioAssay AID1259308 | NCATS | 2017

Aim: 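Candidate targets for better recombinant protein yield in mammalian cells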 (primary screen)
Cells: human HEK293 embryonic kidney cells stably expressing firefly luciferase (HEK-CMV-Luc2-Hygro)
Knock-down reagent: single siRNA against human genes, 0.8 pmol siRNA per well
Duration: 72 h
Measured: 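Luciferase light (ONE-Glo) measured on one replicate plate set and viability (CellTiter-Glo) on the other, scaled to a negative control siRNA, with robust z-scores and luciferase per cell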
Direction: total luciferase, z-score and total luciferase, % of control: higher = more reporter protein produced; luciferase per cell, z-score: higher = more reporter output per viable cell; viable cells, % of control: higher = more viable cells
Hit rule: 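An siRNA counts as active if its total luciferase robust z-score exceeds 3; genes with two or more such siRNAs out of three were retested with fresh siRNAs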
Calls: active = raised luciferase; inactive = no rise
Here is an unselected part of about 59,000 reagents tested. Of all reagents, about 1,510 (2.6%) got an active call. 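Calls use total luciferase alone and ignore viability, so some active siRNAs may act by altering cell number.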 A number with no mark means an inactive call. Reagents against one gene are numbered here.

| target gene | reagent no. | total luciferase, z-score | total luciferase, % of control | luciferase per cell, z-score | viable cells, % of control |
| --- | --- | --- | --- | --- | --- |
| POU5F2 | 1 | 1.46 | 111 | 1.08 | 93.3 |
| POU5F2 | 2 | 0.187 | 85.6 | 0.08 | 93.7 |
| POU5F2 | 3 | 0.0606 | 83.1 | -0.133 | 96.2 |
| PIEZO1P1 | 1 | 0.171 | 85.3 | 0.195 | 90.5 |
| PIEZO1P1 | 2 | 0.818 | 98.1 | 0.944 | 85.5 |
| PIEZO1P1 | 3 | -1.15 | 59 | -1.22 | 91 |
| NECAB2 | 1 | -0.73 | 67.4 | -0.0617 | 76.5 |
| NECAB2 | 2 | 0.515 | 92.1 | 0.476 | 90.8 |
| NECAB2 | 3 | -1.28 | 56.4 | -0.949 | 80.9 |
| STEAP3 | 1 | -1.03 | 61.5 | -1.65 | 106 |
| STEAP3 | 2 | -0.909 | 63.8 | -0.967 | 92 |
| STEAP3 | 3 | 1.73 | 116 | 1.15 | 96.1 |
| ATP10D | 1 | -0.0725 | 80.4 | 0.27 | 83.7 |
| ATP10D | 2 | -0.537 | 71.2 | -0.714 | 96 |
| ATP10D | 3 | -0.0345 | 81.2 | -0.586 | 106 |
| FDXR | 1 | -0.199 | 77.9 | -0.861 | 109 |
| FDXR | 2 | -0.225 | 77.4 | -1.2 | 119 |
| FDXR | 3 | 4.99 (active) | 181 | 5.25 | 50.8 |
| SERPINF2 | 1 | -2.01 | 41.8 | -1.52 | 69.7 |
| SERPINF2 | 2 | -0.189 | 78.1 | -0.351 | 95.8 |
| SERPINF2 | 3 | 1.73 | 116 | 1.43 | 89.1 |
| OR10A3 | 1 | 1.16 | 105 | 1.22 | 85 |
| OR10A3 | 2 | -1.34 | 55.3 | -1.18 | 84.2 |
| OR10A3 | 3 | 0.554 | 92.9 | -0.18 | 109 |
| PRH2 | 1 | 0.0015 | 81.9 | -0.42 | 102 |
| PRH2 | 2 | -1.06 | 60.8 | -0.1 | 69.8 |
| PRH2 | 3 | -1.05 | 61.1 | -1.17 | 92.8 |
| ADRB2 | 1 | 0.207 | 86 | -0.244 | 102 |
| ADRB2 | 2 | 2.29 | 128 | 1.85 | 87.4 |
| ADRB2 | 3 | -0.216 | 77.6 | -0.736 | 105 |
| RPS25P4 | 1 | -1.01 | 61.7 | 0.253 | 64.5 |
| RPS25P4 | 2 | -0.131 | 79.3 | 0.355 | 80.7 |
| RPS25P4 | 3 | -0.401 | 73.9 | -1.31 | 117 |
| MCUR1 | 1 | 1.18 | 105 | 2.07 | 68.2 |
| MCUR1 | 2 | 0.367 | 89.2 | 1.01 | 76.5 |
| MCUR1 | 3 | -2.42 | 33.7 | -3.42 | 92.7 |
| GATD3 | 1 | 0.591 | 93.6 | -0.0756 | 107 |
| GATD3 | 2 | 0.812 | 98 | 0.532 | 95.2 |
| GATD3 | 3 | -1.05 | 60.9 | -0.753 | 83 |

Called active, of those listed so far:
| target gene | reagent no. | total luciferase, z-score | total luciferase, % of control | luciferase per cell, z-score | viable cells, % of control |
| --- | --- | --- | --- | --- | --- |
| FDXR | 3 | 4.99 (active) | 181 | 5.25 | 50.8 |
